Reference: US20230218589A1, “COMPOUND FOR PREVENTION OR TREATMENT OF A SKIN CANCER OR SKIN PRECANCER” (UNIQUEST PTY LTD, priority 2020, published 2023)
At least one compound was matched to its structure with a doubt left.

Test system: human T cells
Experiment: Human T cell proliferation assay (PBMCs, anti-CD3, CellTiter-Glo)
Format: cell-based
Conditions: 1 ng/mL rapamycin, anti-CD3, 5 days
Procedure: Cyclosporine A 1 mg/mL stock (CsA—Sigma) was dissolved in DMSO, Rapamycin 5 mg/mL stock (LC Labs) was dissolved in ethanol.
Under sterile conditions, a 96 well flat bottom plate with white opaque walls (Perkin Elmer) was coated with 10 μg per well of purified human anti-CD3 antibody (clone OKT-3; Biolegend) in a volume of 50 μL per well in sterile PBS. The plate was covered in parafilm and incubated overnight at 4° C. Just prior to addition of Peripheral Blood Mononuclear Cells (PBMCs), the antibody solution was removed and discarded using a multichannel pipette. Wells were washed by adding 200 μL sterile PBS to each well and incubating for 2 min. PBS wash solution was removed and discarded following incubation. The wash step was repeated once, for a total of two PBS washes.
20 mL of blood from a consenting healthy volunteer was collected into lithium heparin vacuette containers (Greiner Bio-One). […]
PBMCs were counted manually using a haemocytometer and cell concentration was adjusted to 1.5×10^6 cells/mL with complete RPMI media. […]
CellTiter-Glo Luminescent Cell Viability Assay (Promega) was performed to determine the level of metabolically active cells per well based on ATP quantification. […] The plate was then incubated for 10 min at room temperature in the dark to stabilize the luminescence signal. Luminescence signal was recorded using a CLARIOstar Plus plate reader (BMG Labtech). […]

SMILES: CO[C@H]1C[C@@H]2CC[C@@H](C)[C@@](O)(O2)C(=O)C(=O)N2CCCC[C@H]2C(=O)O[C@H]([C@H](C)C[C@@H]2CC[C@@H](O)[C@H](OC)C2)CC(=O)[C@H](C)/C=C(\C)[C@@H](O)[C@@H](OC)C(=O)[C@H](C)C[C@H](C)/C=C/C=C/C=C/1C [rapamycin, reference compound]
- T cell proliferation compared to the vehicle control: inhibited
